A short description of this series: Fmoc solid-phase peptide synthesis; Sieber amide resin; HBTU/HOBt; DCC/HOBt; DIPCDI/HOAt. The conditions noted are these: whole synthesis, scale 0.02 mmol.

The substance β-Ala0,Arg1-NMU-8 gave an isolated mass of 11.2 mg.
